Results: patent US20230192861A1
No constants are given. Whether binding was seen depends on the method and setting. Some binding calls cover weakened binding; strength is not graded here.

Protein sequences, listed by entry. Tags and fused reporters are not part of them.
UniProt Q9NZQ7: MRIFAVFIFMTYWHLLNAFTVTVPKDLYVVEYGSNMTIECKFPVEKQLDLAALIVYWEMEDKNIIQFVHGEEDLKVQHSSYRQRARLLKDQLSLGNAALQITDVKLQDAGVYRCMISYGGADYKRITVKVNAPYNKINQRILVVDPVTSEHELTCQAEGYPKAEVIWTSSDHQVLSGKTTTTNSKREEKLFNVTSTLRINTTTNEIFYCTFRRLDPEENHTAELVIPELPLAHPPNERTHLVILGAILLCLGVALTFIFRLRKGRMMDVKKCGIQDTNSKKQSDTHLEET

B1: H12 (antibody, V domains shown)
VH: EVQLVESGGGLVQPGGSLRLSCAASGFTFSSYDMSWVRQAPGKSLEWVATISDAGGYIYYSDSVKGRFTISRDNAKNSLYLQMNSLRDEDTAVYICAREFGKRYALDYWGQGTTVTVSS
VL: DIQMTQSPSSLSASVGDRVTITCKASQDVTPAVAWYQQKPGKAPKLLIYSTSSRYTGVPSRFSGSGSGTDFTFTISSLQPEDIATYYCQQHYTTPLTFGQGTKLEIK
B2: B6 (anti-PD-L1) (antibody, V domains shown)
VH: EVQLVESGGGLVQPGGSLRLSCAASGFTFSSYDMSWVRQAPGKSLEWVATISDAGGYIYYRDSVKGRFTISRDNAKNSLYLQMNSLRDEDTAVYICARELPWRYALDYWGQGTTVTVSS
VL: DIQMTQSPSSLSASVGDRVTITCKASQDVTPAVAWYQQKPGKAPKLLIYSTSSRYTGVPSRFSGSGSGTDFTFTISSLQPEDIATYYCQQHYTTPLTFGQGTKLEIK

Target: PD-L1 (Biacore, Example 1.6) (UniProt Q9NZQ7)
Test: Biacore

Binder	binding
B1	binds
B2	binds
